Screening data, single-dose tests

Protein sequences, listed by entry. Tags and fused reporters are not part of them. Residues count along the entry.
UniProt Q4DA54, 1-478: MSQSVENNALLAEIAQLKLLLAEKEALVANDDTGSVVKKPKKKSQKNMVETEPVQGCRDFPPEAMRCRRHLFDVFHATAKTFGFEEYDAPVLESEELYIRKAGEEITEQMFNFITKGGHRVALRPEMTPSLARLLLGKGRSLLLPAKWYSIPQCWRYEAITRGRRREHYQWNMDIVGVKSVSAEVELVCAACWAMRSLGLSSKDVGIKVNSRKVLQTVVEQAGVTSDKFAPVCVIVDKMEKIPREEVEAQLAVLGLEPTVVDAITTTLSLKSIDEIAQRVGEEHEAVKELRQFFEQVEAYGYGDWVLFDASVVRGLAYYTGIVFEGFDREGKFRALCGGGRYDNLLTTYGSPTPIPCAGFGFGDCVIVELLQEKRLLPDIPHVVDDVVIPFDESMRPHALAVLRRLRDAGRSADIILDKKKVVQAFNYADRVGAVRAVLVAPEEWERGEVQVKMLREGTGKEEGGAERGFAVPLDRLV
UniProt P9WPC5, whole entry: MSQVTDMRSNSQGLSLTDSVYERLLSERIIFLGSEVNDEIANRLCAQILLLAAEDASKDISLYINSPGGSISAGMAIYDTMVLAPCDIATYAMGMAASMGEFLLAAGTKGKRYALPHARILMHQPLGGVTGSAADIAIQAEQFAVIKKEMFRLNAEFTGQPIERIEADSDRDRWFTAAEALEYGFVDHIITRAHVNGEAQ
UniProt P9WPC3, whole entry partner: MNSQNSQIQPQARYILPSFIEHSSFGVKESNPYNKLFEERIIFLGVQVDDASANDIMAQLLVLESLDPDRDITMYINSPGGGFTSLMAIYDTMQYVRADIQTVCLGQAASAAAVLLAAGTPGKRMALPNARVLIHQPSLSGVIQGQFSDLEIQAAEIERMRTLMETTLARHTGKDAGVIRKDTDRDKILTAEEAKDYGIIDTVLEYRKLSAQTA
UniProt Q8IDJ8, 1-583: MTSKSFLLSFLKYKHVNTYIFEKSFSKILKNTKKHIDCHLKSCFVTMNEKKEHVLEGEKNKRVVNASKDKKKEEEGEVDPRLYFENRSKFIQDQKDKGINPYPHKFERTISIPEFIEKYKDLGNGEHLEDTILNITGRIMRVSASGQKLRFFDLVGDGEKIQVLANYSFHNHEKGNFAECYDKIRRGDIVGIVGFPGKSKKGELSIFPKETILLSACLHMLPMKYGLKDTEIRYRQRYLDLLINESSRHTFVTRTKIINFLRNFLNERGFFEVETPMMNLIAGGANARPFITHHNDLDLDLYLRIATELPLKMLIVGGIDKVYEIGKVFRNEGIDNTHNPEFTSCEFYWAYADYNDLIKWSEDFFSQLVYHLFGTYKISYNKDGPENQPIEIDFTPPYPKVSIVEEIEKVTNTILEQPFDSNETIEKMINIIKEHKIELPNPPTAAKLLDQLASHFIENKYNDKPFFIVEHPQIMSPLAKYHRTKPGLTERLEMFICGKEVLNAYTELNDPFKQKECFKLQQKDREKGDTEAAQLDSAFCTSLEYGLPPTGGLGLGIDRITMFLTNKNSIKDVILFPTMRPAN
UniProt A4I591, 1-473: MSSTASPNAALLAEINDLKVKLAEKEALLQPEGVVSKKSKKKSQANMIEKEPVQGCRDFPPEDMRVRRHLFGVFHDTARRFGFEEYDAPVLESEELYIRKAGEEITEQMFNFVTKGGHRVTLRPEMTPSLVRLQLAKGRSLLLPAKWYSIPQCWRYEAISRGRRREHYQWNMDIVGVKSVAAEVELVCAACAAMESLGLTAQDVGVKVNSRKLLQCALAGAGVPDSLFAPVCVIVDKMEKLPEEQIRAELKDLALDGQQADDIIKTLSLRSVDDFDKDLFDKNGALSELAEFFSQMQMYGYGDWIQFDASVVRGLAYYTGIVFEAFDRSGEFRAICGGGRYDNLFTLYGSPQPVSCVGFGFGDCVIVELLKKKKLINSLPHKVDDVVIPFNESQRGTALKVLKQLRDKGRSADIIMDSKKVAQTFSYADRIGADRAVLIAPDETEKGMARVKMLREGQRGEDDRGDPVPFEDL

A: 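Histidine-tRNA ligase, Trypanosoma cruzi CL Brener (UniProt Q4DA54). Enzyme assay of histidyl-tRNA synthetase; the read-out is not stated. Concentration: 30 µM. Higher reads as stronger inhibition (inferred: compounds with an IC50 in retests scored well above the rest). About 69,000 compounds were tested under these conditions; 0.045% (about 31) showed 50% or more at least once.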
B: 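ClpP1P2, Mycobacterium tuberculosis (UniProt P9WPC5 and UniProt P9WPC3). Protease assay of ClpP1P2, read by the AMC dye that it sets free. Tested at 50 µM. Higher reads as stronger inhibition, judged from the few compounds that gave an IC50. Most other retested compounds had strongly negative values. Size under these conditions: about 69,000 compounds, about 10 of them at 50% or above in at least one test.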
C: 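Lysine-tRNA ligase, Plasmodium falciparum 3D7 (UniProt Q8IDJ8). Enzyme assay of the cytosolic lysyl-tRNA synthetase in 384-well plates, read by luminescence. Tested at 30 µM. Higher reads as stronger inhibition, judged from the few compounds that gave an IC50. About 69,000 compounds were tested under these conditions; 0.071% (about 49) showed 50% or more at least once.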
D: 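Histidine-tRNA ligase, Leishmania infantum (UniProt A4I591). Enzyme assay of histidyl-tRNA synthetase; the read-out is not stated. Concentration: 30 µM. Higher reads as stronger inhibition (inferred: compounds with an IC50 in retests scored well above the rest). The assay is labelled LdHisRS but filed under L. infantum. Size under these conditions: about 69,000 compounds, about 410 of them at 50% or above in at least one test.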

Values are the deposited “Percent Effect”, in %.
The record does not define 0% and 100%; most values in the screen are far below 50% and negative numbers occur (in some assays of this library far below -100).
This is an unselected part of the compounds tested.

SMILES: CC(C)N(C)Cc1cc(=O)n2c(n1)CN(C(=O)c1ccc[nH]1)CCC2
A: 6.533
B: -2.237
C: 3.398
D: 15.84

SMILES: O=C1CC2(CCCNC2)C(=O)N1Cc1ccc(Cl)cc1 (centres undefined)
A: 3.883
B: -0.8306
C: 2.046
D: 7.692

SMILES: c1cc([C@H]2C[C@@H]3CCN(Cc4nccs4)C[C@H]3O2)ncn1
A: 5.464
B: -10.18
C: 4.264
D: 14.04

SMILES: CC(C)n1cc(C(=O)N2CCN(c3cccc(C(F)(F)F)c3)CC2)cn1
A: 2.4
B: -6.987
C: 6.206
D: 6.557

SMILES: COCc1ccc(C(=O)N2CCc3c(ncnc3N3CCOCC3)C2)o1
A: 7.407
B: -0.9137
C: 1.154
D: 12.12

SMILES: Oc1nc(N2CCOCC2)nc2c1CCN(Cc1cccc(F)c1)CC2
A: 10
B: 7.743
C: 4.401
D: 12.37

SMILES: CCNC(=O)c1c2c(N3CCN(C)CC3)ncnc2n2ccccc12
A: 5.785
B: -381.6
C: 2.531
D: 7.273

SMILES: Clc1ccc(OCCNC2(c3ccc(Br)cc3)CCOCC2)cc1
A: 2.703
B: -20.46
C: 0.382
D: 30.14

SMILES: CCCc1n[nH]c(C2CN(C(=O)CCCn3ccnc3)CCO2)n1 (centres undefined)
A: 0
B: 6.169
C: 5.676
D: 12.39

SMILES: c1cc(CNCc2ccnc(N3CCCC3)c2)c2c(c1)OCCCO2
A: 10.58
B: -7.544
C: 2.068
D: 3.03

SMILES: CN(Cc1nnc(C2CC2)n1C)C1CCN(CCc2cccs2)C1 (centres undefined)
A: 4.959
B: -10.22
C: 1.635
D: 9.524

For reference, 2 entries once more:

| SMILES | A | B | C | D |
|---|---|---|---|---|
| `CC(C)n1cc(C(=O)N2CCN(c3cccc(C(F)(F)F)c3)CC2)cn1` | 2.4 | -6.987 | 6.206 | 6.557 |
| `COCc1ccc(C(=O)N2CCc3c(ncnc3N3CCOCC3)C2)o1` | 7.407 | -0.9137 | 1.154 | 12.12 |

Measurements from “University of Dundee, Small-Polar-MMV Screening Library” (2021), ChEMBL document CHEMBL3988442.